Measured values taken from publication PMC6692315.
These are yes or no findings as the source states them, for the method shown. Binding seen in cells or lysates may run through a third protein. Some results given as binding are weak or reduced against the parent protein; the word gives no strength.

Amino acid sequences for entries named in this document (tags omitted).
UniProt Q8TEB1: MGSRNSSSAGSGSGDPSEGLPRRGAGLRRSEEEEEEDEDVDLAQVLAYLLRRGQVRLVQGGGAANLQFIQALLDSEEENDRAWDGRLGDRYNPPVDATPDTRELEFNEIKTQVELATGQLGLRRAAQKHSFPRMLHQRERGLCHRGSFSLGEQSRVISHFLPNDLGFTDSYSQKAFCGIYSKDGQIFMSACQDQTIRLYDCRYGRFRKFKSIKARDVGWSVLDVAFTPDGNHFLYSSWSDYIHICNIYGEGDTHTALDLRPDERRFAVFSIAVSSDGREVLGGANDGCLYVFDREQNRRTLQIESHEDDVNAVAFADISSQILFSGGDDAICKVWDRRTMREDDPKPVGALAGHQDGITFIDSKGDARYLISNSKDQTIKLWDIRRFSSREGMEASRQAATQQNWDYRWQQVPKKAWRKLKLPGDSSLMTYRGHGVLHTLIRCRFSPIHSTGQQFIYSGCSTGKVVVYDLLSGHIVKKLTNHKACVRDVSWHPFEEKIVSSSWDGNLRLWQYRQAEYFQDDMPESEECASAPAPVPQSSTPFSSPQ
UniProt Q13619: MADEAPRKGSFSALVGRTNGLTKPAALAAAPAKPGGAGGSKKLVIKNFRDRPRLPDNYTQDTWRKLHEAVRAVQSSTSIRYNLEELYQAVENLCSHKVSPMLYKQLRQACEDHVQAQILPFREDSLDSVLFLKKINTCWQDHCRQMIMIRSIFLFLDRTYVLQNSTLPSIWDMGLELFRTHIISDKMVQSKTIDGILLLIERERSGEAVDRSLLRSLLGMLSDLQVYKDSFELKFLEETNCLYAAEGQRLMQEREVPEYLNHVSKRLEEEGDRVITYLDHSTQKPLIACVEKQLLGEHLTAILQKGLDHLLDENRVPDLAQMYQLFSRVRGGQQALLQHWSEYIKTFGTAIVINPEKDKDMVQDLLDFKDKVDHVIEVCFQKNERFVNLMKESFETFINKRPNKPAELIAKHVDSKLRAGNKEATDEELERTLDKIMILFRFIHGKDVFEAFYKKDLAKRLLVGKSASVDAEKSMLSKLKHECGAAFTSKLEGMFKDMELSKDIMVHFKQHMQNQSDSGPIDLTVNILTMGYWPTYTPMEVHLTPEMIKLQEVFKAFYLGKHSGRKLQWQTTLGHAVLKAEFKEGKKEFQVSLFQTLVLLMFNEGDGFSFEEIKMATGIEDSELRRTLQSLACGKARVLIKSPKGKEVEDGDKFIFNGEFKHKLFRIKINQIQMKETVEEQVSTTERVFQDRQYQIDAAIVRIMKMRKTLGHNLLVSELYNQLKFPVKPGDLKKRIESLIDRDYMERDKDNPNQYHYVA
UniProt Q16531: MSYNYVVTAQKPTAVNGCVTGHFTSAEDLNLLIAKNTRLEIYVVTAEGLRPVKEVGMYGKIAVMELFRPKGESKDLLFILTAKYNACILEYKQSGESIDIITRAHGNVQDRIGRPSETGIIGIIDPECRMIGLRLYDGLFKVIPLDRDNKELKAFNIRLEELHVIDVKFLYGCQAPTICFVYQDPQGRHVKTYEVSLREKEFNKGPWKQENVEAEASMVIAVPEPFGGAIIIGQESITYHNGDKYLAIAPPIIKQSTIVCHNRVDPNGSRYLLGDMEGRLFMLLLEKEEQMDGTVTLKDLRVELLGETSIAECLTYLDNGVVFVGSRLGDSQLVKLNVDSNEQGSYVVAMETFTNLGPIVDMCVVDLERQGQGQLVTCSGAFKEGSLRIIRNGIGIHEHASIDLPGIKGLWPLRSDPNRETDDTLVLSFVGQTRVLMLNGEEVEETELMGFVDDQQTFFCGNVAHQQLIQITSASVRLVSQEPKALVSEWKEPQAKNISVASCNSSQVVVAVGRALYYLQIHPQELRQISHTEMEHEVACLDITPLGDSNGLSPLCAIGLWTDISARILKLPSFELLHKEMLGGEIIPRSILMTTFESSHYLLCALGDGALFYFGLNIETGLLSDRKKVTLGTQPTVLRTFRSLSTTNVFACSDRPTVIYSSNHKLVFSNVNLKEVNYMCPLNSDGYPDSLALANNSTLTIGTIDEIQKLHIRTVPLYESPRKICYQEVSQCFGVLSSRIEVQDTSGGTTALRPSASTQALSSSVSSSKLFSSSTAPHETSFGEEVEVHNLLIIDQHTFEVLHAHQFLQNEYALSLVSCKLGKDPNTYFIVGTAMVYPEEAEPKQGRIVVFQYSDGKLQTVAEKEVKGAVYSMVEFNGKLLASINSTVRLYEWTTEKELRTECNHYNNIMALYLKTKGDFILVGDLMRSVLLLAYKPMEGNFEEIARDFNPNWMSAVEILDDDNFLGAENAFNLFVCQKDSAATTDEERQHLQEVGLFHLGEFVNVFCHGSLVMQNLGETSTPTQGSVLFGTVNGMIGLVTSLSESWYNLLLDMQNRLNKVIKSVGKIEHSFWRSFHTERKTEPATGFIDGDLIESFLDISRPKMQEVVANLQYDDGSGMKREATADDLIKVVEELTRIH

Target: GFP-WDR23 isoform I (human) (human) (UniProt Q8TEB1)
Assay: co-IP; GFP-tagged protein immunoprecipitated with GFP trap magnetic agarose beads (Chromotek) from transfected HEK-293T lysate; 0.5% CHAPS buffer (10 mM Tris/Cl pH 7.5, 150 mM NaCl, 0.5 mM EDTA); Western blot

binding	Substance
binds	CUL4A (from UniProt Q13619 1-759)
binds	DDB1 (from UniProt Q16531 1-1140)
